Experimental data: PubChem BioAssay (NCATS)
This is one part of the list. These are further read-outs of the screen, such as a control signal, another cell line or another target. No call is given for them. The list favours compounds with an active or inconclusive main result. The note in brackets gives the kind of curve behind each potency; many fits are weak.

Test: Validation of Assay for Modulators of Lamin A Splicing (AID 1459)
Details: Lamin A splicing dual RFP/GFP fluorescence reporter, ratio; measured here: GFP channel
Procedure, shortened: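 Splicing correction is reported by an EGFP-containing lamin A minigene in stably transfected S3 HeLa cells, while DsRed2 controls for viability and nonspecific signal. Cells are exposed to compounds for 48 hrs before the GFP over RFP ratio is taken.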

| SMILES | AC50 |
| --- | --- |
| CC(C)(C)NCC(O)COc1cccc2[nH]c(=O)[nH]c12 (configuration not stated) | 35.5 µM [falling, single point] |
| NCC(O)C1CCCCCCC1 (configuration not stated) | 1.58 µM [falling, full curve, poor fit] |
| C[C@H]1c2cccc(O)c2C(O)=C2C(=O)[C@]3(O)C(O)=C(C(N)=O)C(=O)C(N(C)C)[C@@H]3[C@@H](O)C21 (some centres not stated) | 3.55 µM [falling, single point] |
| CCOC(=O)N1CCC(=C2c3ccc(Cl)cc3CCc3cccnc32)CC1 | 25.1 µM [falling, single point] |
| O=c1cc(-c2ccc(O)cc2)oc2cc(O)cc(O)c12 | 20 µM [falling, partial curve] |
| CCCCOc1cc(CC2CNC(=O)N2)ccc1OC (configuration not stated) | 15.8 µM [rising, partial curve] |
| CC(=O)OCC1=C(C(=O)O)N2C(=O)[C@@H](NC(=O)Cc3cccs3)[C@H]2SC1 | 15.8 µM [rising, partial curve] |
| O=C1C(SCCO)=C(SCCO)C(=O)c2ccccc21 | 3.98 µM [falling, full curve] |
| CC(=O)[C@]1(O)Cc2c(O)c3c(c(O)c2[C@@H](O[C@H]2C[C@H](N)[C@H](O)[C@H](C)O2)C1)C(=O)c1ccccc1C3=O | 0.631 µM [falling, full curve] |
| COC1=C(OC)C(=O)c2ccccc2C1=O | 5.01 µM [falling, full curve] |
| NS(=O)(=O)c1cc2c(cc1Cl)NC(C1CC3C=CC1C3)NS2(=O)=O (configuration not stated) | 6.31 µM [falling, single point] |
| O=C(Nc1cccc(C(=O)Nc2ccc(S(=O)(=O)O)c3cc(S(=O)(=O)O)cc(S(=O)(=O)O)c23)c1)Nc1cccc(C(=O)Nc2ccc(S(=O)(=O)O)c3cc(S(=O)(=O)O)cc(S(=O)(=O)O)c23)c1 | 5.62 µM [falling, single point] |
| CN(C)CCCN1c2ccccc2Sc2ccc(C(F)(F)F)cc21 | 14.1 µM [falling, partial curve, poor fit] |
| Cc1scc2c1N(C(=O)CN1CCN(C)CC1)c1ccccc1NC2=O | 5.62 µM [falling, full curve] |
| CC/C(=C(\c1ccccc1)c1ccc(OCCN(C)C)cc1)c1ccccc1 | 35.5 µM [falling, single point] |
| NCCCS(=O)(=O)O | 3.98 µM [rising, full curve, poor fit] |

Quoted from above, two compounds:

| SMILES | AC50 |
| --- | --- |
| C[C@H]1c2cccc(O)c2C(O)=C2C(=O)[C@]3(O)C(O)=C(C(N)=O)C(=O)C(N(C)C)[C@@H]3[C@@H](O)C21 (some centres not stated) | 3.55 µM [falling, single point] |
| CCOC(=O)N1CCC(=C2c3ccc(Cl)cc3CCc3cccnc32)CC1 | 25.1 µM [falling, single point] |

Following part.

| SMILES | AC50 |
| --- | --- |
| C[C@]12CC[C@@H]3c4ccc(O)cc4CC[C@H]3[C@@H]1CCC2=O | 11.2 µM [rising, partial curve, poor fit] |
| C[C@@H]1C(=O)NC2=Nc3cccc(Cl)c3CN21 | 0.398 µM [rising, full curve] |
| CC(C)(Sc1ccc(CCN(CCCCC2CCCCC2)C(=O)NC2CCCCC2)cc1)C(=O)O | 17.8 µM [falling, partial curve] |
| COc1cc2ncnc(Nc3cccc(Cl)c3)c2cc1OC | 0.891 µM [falling, full curve, poor fit] |
| CC(C)c1ccc2c(c1)c(SC(C)(C)C)c(CC(C)(C)C(=O)O)n2Cc1ccc(Cl)cc1 | 11.2 µM [falling, partial curve] |
| Oc1ccc(/C=C/c2cc(O)cc(O)c2)cc1 | 12.6 µM [falling, single point] |
| Oc1ccc(-c2nc(-c3ccc(F)cc3)c(-c3ccncc3)[nH]2)cc1 | 1.12 µM [falling, full curve] |
| CCCCCCCCCCCCCCCC(=O)NCC(COP(=O)([O-])OCC[N+](C)(C)C)OCC (configuration not stated) | 10 µM [falling, partial curve] |
| O=C1CCC(c2ccc(-n3ccnc3)cc2)=NN1 | 3.16 µM [rising, full curve] |
| C[n+]1cc2c3c(ccc2c2ccc4cc5c(cc4c21)OCO5)OCO3 | 0.562 µM [falling, full curve] |
| CN(C)CCCO[C@H]1C([C@H](O)CO)O[C@@H]2OC(C)(C)O[C@@H]21 (some centres not stated) | 2 µM [falling, partial curve] |
| Oc1cc(O)cc(/C=C/c2ccc(O)c(O)c2)c1 | 35.5 µM [falling, single point] |
| Fc1ccc(C(c2ccc(F)cc2)N2CCN(C/C=C/c3ccccc3)CC2)cc1 | 25.1 µM [falling, single point] |
| O=C1c2c(O)ccc(O)c2C(=O)c2c(NCCNCCO)ccc(NCCNCCO)c21 | 20 µM [falling, partial curve, poor fit] |
| O=C(Nc1ccc([N+](=O)[O-])cc1Cl)c1cc(Cl)ccc1O | 1.58 µM [rising, full curve] |
| N[C@H](C(=O)O)c1cc(O)cc(O)c1 | 22.4 µM [falling, partial curve] |
